PubChem BioAssay AID1259405, NCATS – 2018
Shown is an unselected part of about 50,000 reagents. Of all reagents, about 4,000 (8%) are marked active. 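Mouse siRNA library applied to hamster cells; one well for each siRNA.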 Unmarked entries are inactive. The numbers tell different reagents against one gene apart. Not all columns of the deposit are shown.

Aim: 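Knock-downs that lift recombinant protein yield in hamster ovary cells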 (primary screen)
Cell system: Chinese hamster CHO-K1 ovary cells with stable secreted eGFP expression
Reagent: single siRNA against mouse genes, 0.8 pmol siRNA per well (2 µl of 400 nM stock)
Timing: 3 days
Detection: 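Percent of the per-plate non-targeting control median for intracellular GFP per well by laser scanning cytometry and for cell viability by ATP luminescence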
Scale: GFP, % of control: higher = more GFP per well, higher productivity
Rule for the call: 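Called active when intracellular GFP, relative to negative control, is at or above 120%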

GFP, % of control, by gene knocked down and reagent
Gpbp1: #1 76.8; #2 36.7; #3 117
Fbxw26: #1 88.6; #2 70.8; #3 76
Apoa2: #1 90.6; #2 96.5; #3 94.8
Abraxas2: #1 64.5; #2 58; #3 80
Adprhl1: #1 73.9; #2 88.1; #3 140 (active)
Ufd1: #1 16.5; #2 115; #3 95.9
Dnpep: #1 71.8; #2 136 (active)
Adcy1: #1 77; #2 77.8; #3 72.8
Tmem178: #1 60.4; #2 80.4; #3 60.2
Trappc14: #1 103; #2 89.1; #3 84.8
Fez1: #1 68.2; #2 102; #3 131 (active)
Setbp1: #1 99; #2 103
Olfr255: #1 72.1; #2 135 (active); #3 72.2
Marchf10: #1 76.5; #2 88.9; #3 149 (active)
Or2r3: #1 49.8; #2 89.7; #3 34.9
Tmem38a: #1 77.2; #2 82.7; #3 116
Klrb1b: #1 90.6; #2 116; #3 75.5; #4 86.6; #5 80.2; #6 87.4
Cog4: #1 99.3; #2 81.6; #3 71.1
Entrep2: #1 82.9; #2 59.6; #3 75.9
Col8a1: #1 112; #2 91.3

Records above whose target name begins with U or u (3):
GFP, % of control, by gene knocked down and reagent
Ufd1: #1 16.5; #2 115; #3 95.9

Further reagents follow.
GFP, % of control, by gene knocked down and reagent
Il36g: #1 71.5; #2 76.4; #3 102
Pax3: #1 86.5; #2 74.6; #3 67.5
Osgep: #1 69.3; #2 39.5; #3 30.6
Lrrc2: #1 71.8; #2 61.6; #3 107
Gskip: #1 87.9; #2 59.4; #3 96.6
Cers6: #1 51.7; #2 52; #3 20.9
Mecp2: #1 72.5; #2 50.6; #3 51.2
Trim47: #1 139 (active); #2 122 (active); #3 105
AA986860: #1 63.4; #2 45.7; #3 72
Lypla2: #1 89.9; #2 104; #3 55.1
Alpl: #1 79.5; #2 82.7; #3 56.1
Figla: #1 50.6; #2 56.4; #3 97.6
Ybey: #1 28.8; #2 65.9; #3 73.9
Or2a14: #1 67.6; #2 79.6; #3 91.9
Rgs17: #1 94.9; #2 167 (active); #3 32
Cbx1: #1 110; #2 70.2; #3 64.7
